Consider two molecules from CN112646036A.

In assay [1] the target is T1, CD23蛋白 (CD23 protein, low-affinity IgE receptor, as present in tissue samples) (UniProt P06734).
T1 sequence (looked up): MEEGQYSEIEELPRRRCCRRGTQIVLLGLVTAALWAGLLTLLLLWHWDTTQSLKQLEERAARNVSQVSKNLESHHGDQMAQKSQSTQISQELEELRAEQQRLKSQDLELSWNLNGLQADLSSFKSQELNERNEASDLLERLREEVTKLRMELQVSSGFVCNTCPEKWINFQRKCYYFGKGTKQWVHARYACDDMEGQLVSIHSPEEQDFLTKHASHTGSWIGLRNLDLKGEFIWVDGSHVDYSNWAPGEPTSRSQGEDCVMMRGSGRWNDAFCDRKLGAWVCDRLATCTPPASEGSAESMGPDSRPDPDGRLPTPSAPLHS
Nature of the assay: immunohistochemistry on tonsil tissue sections, primary antibody 1 μg/mL.

The target of assay [2] is T1, CD23蛋白 (CD23 protein, low-affinity IgE receptor, as present in tissue samples). Nature of the assay: immunohistochemistry on colon cancer tissue sections, primary antibody 1 μg/mL.
For assay [3] the target is unchanged. The assay can be described thus: Western blot on tonsil tissue lysate. On the technique in general: Immunoblotting shows a protein as a band on a membrane.

No constants are given. Whether binding was seen depends on the method and setting. Some binding calls cover weakened binding; strength is not graded here.

B1: 365A2D1抗CD23单克隆抗体 (anti-CD23 monoclonal antibody secreted by mouse hybridoma cell line 365A2D1) (antibody, V domains shown)
VH: EVQLQESGGGLVQPKGSLKLSCAASGYTFNTYAMHWVRQAPGKGLEWVARIRSKSNNYEPYYADSVKDRFTISRDDSQSILYLQMNNLKTEDTAMYYCVREYYDAMDYWGQGTSVTVSS
VL: EIVMTQAAPSVSVTPGESVSISCRSSQSLLHSNGNTYLYWFLQRPGQSPHLLISRVSNLASGVPDRFSGSGSGTAFTLRISRVEAEDVGVYYCMQGLEFPWTFGGGTKLEIK
For the molecule B1, the binding result in assay [1] and in assay [2] was “binds” throughout.

B2: recombinant anti-CD23 monoclonal antibody (365A2D1 VH/VL on mouse IgG1 and kappa constant regions, expressed in Expi-293F cells, Example 7) (antibody, V domains shown, not shown: a dimerising Fc or GST)
VH: B1 VH
VL: EIVMTQAAPSVSVTPGESVSISCRSSQSLLHSNGNTYLYWFLQRPGQSPHLLISRVSNLASGVPDRFSGSGSGTAFTLRISRVEAEDVGVYYCMQGLEFPWTFGGGTKLEIKR
Consider B2, for which the binding entry in assay [3] is on record as “binds”.
